Measured values from the supplement of paper PMC8166895.
Structures can show the parent of a compound that is named as a salt. The list shows a part of the results. Most entries show no effect beyond the scatter of the controls.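 A single-replicate pilot screen of approved drugs and clinical or known-target compounds measured melting temperature via differential scanning fluorimetry. Top stabilizing hits raised the melting point by 2 °C or more; negative shifts indicate destabilization.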

Test system: SARS-CoV-2 main protease (Mpro, nsp5)
Test: thermal shift ΔTm of Mpro relative to plate average Tm; higher = stronger thermal stabilization of Mpro (binding)
Conditions: 10 µM; protein concentration 1 µM

SMILES | thermal shift ΔTm of Mpro [°C]
CCCCCCCCCCCC1=C(O)C(=O)C=C(O)C1=O [Embelin] | 0.601
COc1c2ccoc2cc2oc(=O)ccc12 [Bergapten] | -0.119
Cc1ccc(-c2nnc(NC(=O)c3ccc(Br)s3)o2)cc1 | -0.0199
CNCc1cc(-c2ccccc2F)n(S(=O)(=O)c2cccnc2)c1 | -0.153
c1ccc(CCCN2CCN(CCOC(c3ccccc3)c3ccccc3)CC2)cc1 | 0.0109
Cc1nn(C)c2c1C(c1ccc(C(F)(F)F)cc1)C(C#N)=C(N)O2 (stereo unspecified) | -0.12
Cc1ccccc1C(OCCN(C)C)c1ccccc1 (stereo unspecified) [Orphenadrine Citrate] | 0.0589
C[C@H](CSC(=O)c1ccccc1)C(=O)N1C[C@@H](Sc2ccccc2)C[C@H]1C(=O)O [Zofenopril (calcium)] | 0.285
CN1CCOC(c2ccccc2)c2ccccc2C1 (stereo unspecified) [Nefopam hydrochloride] | 0.046
CN1CCC(=C2c3ccccc3CCc3sccc32)CC1 [Pizotifen] | 0.119
CN1CCC(=C2c3ccccc3CCc3sccc32)CC1 [Pizotifen Malate] | 0.121
COc1cc2ncnc(Oc3ccc(CC(=O)Nc4cnn(C(C)C)c4)cc3)c2cc1OC | -0.0695
COc1ncc(-c2ccc3nccc(-c4ccnnc4)c3c2)cc1NS(=O)(=O)c1ccc(F)cc1F | 0.305
CCN(CC)CCOc1ccc(C(=C(Cl)c2ccccc2)c2ccccc2)cc1 [Clomifene citrate] | -0.0819
C=C[C@@H]1C[C@]1(NC(=O)[C@@H]1C[C@@H]2CN1C(=O)[C@H](C(C)(C)C)NC(=O)O[C@@H]1C[C@H]1CCCCCc1nc3ccc(OC)cc3nc1O2)C(=O)NS(=O)(=O)C1CC1 [Grazoprevir] | -0.0785
CCC1=C[C@H]2CN3CCc4c([nH]c5ccccc45)[C@](C(=O)OC)(C2)[C@H]13 [Catharanthine] | -0.134
C[C@]1(COc2ccc(N3CCC(Oc4ccc(OC(F)(F)F)cc4)CC3)cc2)Cn2cc([N+](=O)[O-])nc2O1 [Delamanid] | 0.105
CCCCNc1ccc(C(=O)OCCN(C)C)cc1 [Tetracaine HCl] | -0.0444
CCCCCOC(=O)Nc1nc(=O)n([C@@H]2O[C@H](C)[C@@H](O)[C@H]2O)cc1F [Capecitabine] | 0.0383

SMILES | thermal shift ΔTm of Mpro [°C]
COc1ccc2cc(-c3nc(-c4ccc([S+](C)[O-])cc4)[nH]c3-c3ccncc3)ccc2c1 (stereo unspecified) [Tie2 kinase inhibitor] | -0.26
Nc1ncnc2c1C(=O)N(c1ccc([C@H]3CC[C@H](CC(=O)O)CC3)cc1)CCO2 | -0.0283
Cc1ncc(COP(=O)(O)O)c(C=O)c1O [Pyridoxal phosphate] | -0.00245
CC(O)(P(=O)(O)O)P(=O)(O)O [Etidronate] | 0.104
CC(O)(P(=O)(O)O)P(=O)(O)O [Sodium etidronate] | 0.126
CNCC(O)c1ccc(O)cc1 (stereo unspecified) [Synephrine HCl] | -0.111
CNCC(O)c1ccc(O)cc1 (stereo unspecified) [Synephrine] | -0.0728
FC(F)(F)c1ccc(CNc2ccc(Cc3c[nH]c4ncc(Cl)cc34)cn2)cc1 | 0.159
Cc1cc(-c2ncc(CC(=O)Nc3ccc(-c4cnccn4)cn3)cc2C)ccn1 | 0.0102
O=C(O)COCCN1CCN([C@H](c2ccccc2)c2ccc(Cl)cc2)CC1 [Levocetirizine] | 0.129
Cc1cnc(C(=O)NCCc2ccc(S(=O)(=O)NC(=O)NC3CCCCC3)cc2)cn1 [Glipizide] | -0.114
CN1CCC(NC(=O)c2cc(-c3c(O)cc(O)cc3Oc3ccc([N+](=O)[O-])cc3)on2)CC1 | 0.388
CC1=C(/C=C/C(C)=C/C=C/C(C)=C/C(=O)Nc2ccc(O)cc2)C(C)(C)CCC1=O [4-Oxofenretinide] | 0.041
c1cc(-c2cnn3cc(-c4ccc(OCCN5CCCCC5)cc4)cnc23)ccn1 [Dorsomorphin] | -0.00235
O=C1[C@H](CC[C@H](O)c2ccc(F)cc2)[C@@H](c2ccc(O)cc2)N1c1ccc(F)cc1 [Ezetimibe] | 0.0143
CCN1C(=CC(C)=O)Sc2ccc(OC)cc21 | -0.0978
CC(C)Cc1ccc(-c2nc(-c3ccc(CN4CC(C(=O)O)C4)c(F)c3)no2)cc1 [S1p-receptor-agonist-1] | 0.0707
CC(C)NCC(O)c1cc(O)cc(O)c1 (stereo unspecified) [Orciprenaline sulfate] | 0.211
CN1CCc2cc3c(cc2C1O)OCO3 (stereo unspecified) [Hydrastinine hydrochloride] | 0.185

SMILES | thermal shift ΔTm of Mpro [°C]
O=C1/C(=C/c2ccc(O)cc2)Oc2cc(O)ccc21 [Hispidol] | 0.266
CC(=O)/C(C)=N/O [2,3-Butanedione 2-Monoxime] | 0.0319
CC(=O)NCCC(=O)O | 0.264
O=C(O)CN(CCN(CC(=O)O)CC(=O)O)CCN(CC(=O)O)CC(=O)O [Pentetic Acid] | 0.273
CCc1cnn2c(NCc3ccc[n+]([O-])c3)cc(N3CCCC[C@H]3CCO)nc12 | -0.137
Cn1c(=O)c2c(ncn2CCO)n(C)c1=O [Etofylline] | 0.186
O=C1NC(=O)[C@@H](c2cn3c4c(cccc24)CCC3)[C@@H]1c1c[nH]c2ccccc12 [Tivantinib (ARQ 197)] | -0.0528
CC(=O)Nc1ccc(C(=O)NC(C)(C)C)cc1 | -0.0341
C[C@@]1(c2cc(-c3cncnc3)c(F)cc2F)CCSC(N)=N1 | -0.108
CCCN1CCN(c2ccc(C(=O)NC3(C(=O)NCC#N)CCCCC3)cc2)CC1 [Balicatib] | -0.0327
C[C@H]1Oc2cc(cnc2N)-c2c(nn(C)c2C#N)CN(C)C(=O)c2ccc(F)cc21 | -0.0597
COc1ccccc1N1CCN(CCCNc2cc(=O)n(C)c(=O)n2C)CC1 [Urapidil HCl] | 0.0532
COc1ccccc1N1CCN(CCCNc2cc(=O)n(C)c(=O)n2C)CC1 [Urapidil] | 0.178
O=C(Nc1cccc(Nc2ncc(Br)c(NCCc3cnc[nH]3)n2)c1)N1CCCC1 | 0.142
CC(C)(O)CS(=O)(=O)Nc1ccc2c(c1)CCN(C(=O)COc1cccnc1)C2 [Nampt-IN-1] | -0.0369
COc1nc(N)nc2c1ncn2[C@@H]1O[C@H](CO)[C@@H](O)[C@@H]1O [Nelarabine] | 0.167
Oc1ccccc1-c1ccc2cccnc2n1 | 0.0137
CN(C)CCCn1cc(C2=C(c3c[nH]c4ccccc34)C(=O)NC2=O)c2ccccc21 | -0.121

An excerpt of these results, as labelled records:
CC(=O)Nc1ccc(C(=O)NC(C)(C)C)cc1
  thermal shift ΔTm of Mpro [°C]: -0.0341
C[C@@]1(c2cc(-c3cncnc3)c(F)cc2F)CCSC(N)=N1
  thermal shift ΔTm of Mpro [°C]: -0.108
CCCN1CCN(c2ccc(C(=O)NC3(C(=O)NCC#N)CCCCC3)cc2)CC1 [Balicatib]
  thermal shift ΔTm of Mpro [°C]: -0.0327
C[C@H]1Oc2cc(cnc2N)-c2c(nn(C)c2C#N)CN(C)C(=O)c2ccc(F)cc21
  thermal shift ΔTm of Mpro [°C]: -0.0597
